Source: PubChem BioAssay AID1904 (GNF, 2009)

- Aim: 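Knockdowns that alter circadian period or oscillation amplitude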 (follow-up of hits)
- Cells: human U2OS osteosarcoma cells stably expressing a destabilised luciferase driven by the Bmal1 promoter
- Reagents: siRNA pair against human genes, 12.5 nM (two siRNAs, 0.5 pmol each, per well)
- Duration: about 3 days after transfection, then luminescence recorded for about 4 days
- Measured: 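Bmal1 reporter light output measured every 2 hours over several days, detrended, then fitted to give period and amplitude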
- Active means: 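Active when retesting with individual siRNAs reproduced the period or amplitude change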
- Meaning of the calls: active = confirmed by single siRNAs; inactive = not confirmed
The reagents shown are a selection, not the whole library. 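Lists only primary-screen hits; phenotype classes come from fitted traces, and the underlying luminescence values are not given.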 Reagents against one gene are numbered here.

target gene | reagent no. | clock phenotype class | confirmed with single siRNAs | Call
PDGFC | 1 | longer clock period; seen with two independent siRNA pairs for the gene | phenotype reproduced by individual siRNAs | active
PDGFC | 2 | longer clock period; seen with two independent siRNA pairs for the gene | phenotype reproduced by individual siRNAs | active
PTK2 | 1 | longer clock period; seen with two independent siRNA pairs for the gene | phenotype reproduced by individual siRNAs | active
PTK2 | 2 | longer clock period; seen with two independent siRNA pairs for the gene | phenotype reproduced by individual siRNAs | active
ZNF358 | 1 | shorter clock period; seen with two independent siRNA pairs for the gene | phenotype reproduced by individual siRNAs | active
ZNF358 | 2 | shorter clock period; seen with two independent siRNA pairs for the gene | phenotype reproduced by individual siRNAs | active
FLJ14981 | 1 | shorter clock period; seen with two independent siRNA pairs for the gene | phenotype reproduced by individual siRNAs | active
FLJ14981 | 2 | shorter clock period; seen with two independent siRNA pairs for the gene | phenotype reproduced by individual siRNAs | active
FLJ45645 | 1 | longer clock period; seen with two independent siRNA pairs for the gene | phenotype reproduced by individual siRNAs | active
LOC197322 | 1 | shorter clock period; seen with two independent siRNA pairs for the gene | phenotype reproduced by individual siRNAs | active
LOC197322 | 2 | shorter clock period; seen with two independent siRNA pairs for the gene | phenotype reproduced by individual siRNAs | active
POP1 | 1 | longer clock period; seen with two independent siRNA pairs for the gene | phenotype reproduced by individual siRNAs | active
POP1 | 2 | longer clock period; seen with two independent siRNA pairs for the gene | phenotype reproduced by individual siRNAs | active
SERPINC1 | 1 | shorter clock period; seen with one siRNA pair in duplicate wells | phenotype reproduced by individual siRNAs | active
SERPINC1 | 2 | shorter clock period; seen with one siRNA pair in duplicate wells | phenotype reproduced by individual siRNAs | active
CDK6 | 1 | longer clock period; seen with two independent siRNA pairs for the gene | phenotype reproduced by individual siRNAs | active
CDK6 | 2 | longer clock period; seen with two independent siRNA pairs for the gene | phenotype reproduced by individual siRNAs | active
SUCNR1 | 1 | longer clock period; seen with two independent siRNA pairs for the gene | phenotype reproduced by individual siRNAs | active
SUCNR1 | 2 | longer clock period; seen with two independent siRNA pairs for the gene | phenotype reproduced by individual siRNAs | active
HSPC148 | 1 | longer clock period; seen with two independent siRNA pairs for the gene | phenotype reproduced by individual siRNAs | active
HSPC148 | 2 | longer clock period; seen with two independent siRNA pairs for the gene | phenotype reproduced by individual siRNAs | active
CARD9 | 1 | shorter clock period; seen with one siRNA pair in duplicate wells | phenotype not reproduced by individual siRNAs | inconclusive
CARD9 | 2 | shorter clock period; seen with one siRNA pair in duplicate wells | phenotype not reproduced by individual siRNAs | inconclusive
ZNF91 | 1 | longer clock period; seen with two independent siRNA pairs for the gene | phenotype reproduced by individual siRNAs | active
ZNF91 | 2 | longer clock period; seen with two independent siRNA pairs for the gene | phenotype reproduced by individual siRNAs | active
LOC388962 | 1 | longer clock period; seen with two independent siRNA pairs for the gene | phenotype not reproduced by individual siRNAs | inconclusive
MAP3K2 | 1 | longer clock period; seen with two independent siRNA pairs for the gene | phenotype reproduced by individual siRNAs | active
MAP3K2 | 2 | longer clock period; seen with two independent siRNA pairs for the gene | phenotype reproduced by individual siRNAs | active
NEIL1 | 1 | shorter clock period; seen with one siRNA pair in duplicate wells | phenotype not reproduced by individual siRNAs | inconclusive
NEIL1 | 2 | shorter clock period; seen with one siRNA pair in duplicate wells | phenotype not reproduced by individual siRNAs | inconclusive
UBAP2 | 1 | longer clock period; seen with two independent siRNA pairs for the gene | phenotype reproduced by individual siRNAs | active
GPR45 | 1 | longer clock period; seen with two independent siRNA pairs for the gene | phenotype reproduced by individual siRNAs | active
GPR45 | 2 | longer clock period; seen with two independent siRNA pairs for the gene | phenotype reproduced by individual siRNAs | active
SPAG4L | 1 | longer clock period; seen with two independent siRNA pairs for the gene | phenotype reproduced by individual siRNAs | active
SPAG4L | 2 | longer clock period; seen with two independent siRNA pairs for the gene | phenotype reproduced by individual siRNAs | active
GRPR | 1 | longer clock period; seen with two independent siRNA pairs for the gene | phenotype reproduced by individual siRNAs | active
GRPR | 2 | longer clock period; seen with two independent siRNA pairs for the gene | phenotype reproduced by individual siRNAs | active
MGC3234 | 1 | shorter clock period; seen with one siRNA pair in duplicate wells | phenotype reproduced by individual siRNAs | active
MGC3234 | 2 | shorter clock period; seen with one siRNA pair in duplicate wells | phenotype reproduced by individual siRNAs | active
TRIM59 | 1 | longer clock period; seen with two independent siRNA pairs for the gene | phenotype reproduced by individual siRNAs | active
TRIM59 | 2 | longer clock period; seen with two independent siRNA pairs for the gene | phenotype reproduced by individual siRNAs | active
GPR124 | 1 | longer clock period; seen with two independent siRNA pairs for the gene | phenotype reproduced by individual siRNAs | active
GPR124 | 2 | longer clock period; seen with two independent siRNA pairs for the gene | phenotype reproduced by individual siRNAs | active
WBP11 | 1 | longer clock period; seen with two independent siRNA pairs for the gene | not retested with individual siRNAs | –
WBP11 | 2 | longer clock period; seen with two independent siRNA pairs for the gene | not retested with individual siRNAs | –
SERPINA12 | 1 | longer clock period; seen with two independent siRNA pairs for the gene | phenotype reproduced by individual siRNAs | active
SERPINA12 | 2 | longer clock period; seen with two independent siRNA pairs for the gene | phenotype reproduced by individual siRNAs | active
MAGEA12 | 1 | shorter clock period; seen with one siRNA pair in duplicate wells | phenotype reproduced by individual siRNAs | active
MAGEA12 | 2 | shorter clock period; seen with one siRNA pair in duplicate wells | phenotype reproduced by individual siRNAs | active
SLC24A3 | 1 | longer clock period; seen with two independent siRNA pairs for the gene | phenotype reproduced by individual siRNAs | active
SLC24A3 | 2 | longer clock period; seen with two independent siRNA pairs for the gene | phenotype reproduced by individual siRNAs | active
IFNK | 1 | longer clock period; seen with two independent siRNA pairs for the gene | phenotype reproduced by individual siRNAs | active
IFNK | 2 | longer clock period; seen with two independent siRNA pairs for the gene | phenotype reproduced by individual siRNAs | active
SNRPB2 | 1 | longer clock period; seen with two independent siRNA pairs for the gene | not retested with individual siRNAs | –
LOXL3 | 1 | higher rhythm amplitude; seen with two independent siRNA pairs for the gene | phenotype reproduced by individual siRNAs | active
LOXL3 | 2 | higher rhythm amplitude; seen with two independent siRNA pairs for the gene | phenotype reproduced by individual siRNAs | active
BMP4 | 1 | longer clock period; seen with two independent siRNA pairs for the gene | phenotype reproduced by individual siRNAs | active
BMP4 | 2 | longer clock period; seen with two independent siRNA pairs for the gene | phenotype reproduced by individual siRNAs | active

Copied from the list.
POP1 #1, confirmed with single siRNAs → phenotype reproduced by individual siRNAs
Under “Call”, SLC24A3 #1 is entered as active
For “clock phenotype class”, WBP11 #1 is entered as longer clock period; seen with two independent siRNA pairs for the gene
Under “Call”, LOC197322 #2 is entered as active
For “Call”, ZNF358 #2 reads active
Under “Call”, UBAP2 shows active
